The supplement of paper PMC10849652
Some of the results follow.

Chains of the proteins cited; added tags and fusions are not shown. Lines headed by an entry give the natural chain unless they say otherwise; changes in a name come on top.
UniProt Q9NV56, whole entry, looked up: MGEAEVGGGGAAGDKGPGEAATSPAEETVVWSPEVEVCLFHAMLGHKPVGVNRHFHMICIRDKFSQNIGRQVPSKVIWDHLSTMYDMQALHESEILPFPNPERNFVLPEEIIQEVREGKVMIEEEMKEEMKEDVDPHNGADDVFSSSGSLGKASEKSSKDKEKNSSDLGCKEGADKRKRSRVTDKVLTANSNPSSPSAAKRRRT
UniProt Q8NHP6: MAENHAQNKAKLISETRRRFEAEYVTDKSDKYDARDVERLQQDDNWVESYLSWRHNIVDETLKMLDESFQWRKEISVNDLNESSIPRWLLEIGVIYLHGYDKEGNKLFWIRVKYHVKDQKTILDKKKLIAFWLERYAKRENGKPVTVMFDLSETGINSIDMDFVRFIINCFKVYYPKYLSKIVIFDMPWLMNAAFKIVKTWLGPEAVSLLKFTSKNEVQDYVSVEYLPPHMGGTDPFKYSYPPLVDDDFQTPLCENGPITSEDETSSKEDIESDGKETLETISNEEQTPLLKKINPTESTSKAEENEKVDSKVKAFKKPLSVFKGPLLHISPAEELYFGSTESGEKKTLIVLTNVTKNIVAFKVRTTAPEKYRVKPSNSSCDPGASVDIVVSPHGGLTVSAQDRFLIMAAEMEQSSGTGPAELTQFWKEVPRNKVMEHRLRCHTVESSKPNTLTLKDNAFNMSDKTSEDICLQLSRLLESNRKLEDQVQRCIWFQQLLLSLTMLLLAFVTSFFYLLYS
UniProt Q9NZB8: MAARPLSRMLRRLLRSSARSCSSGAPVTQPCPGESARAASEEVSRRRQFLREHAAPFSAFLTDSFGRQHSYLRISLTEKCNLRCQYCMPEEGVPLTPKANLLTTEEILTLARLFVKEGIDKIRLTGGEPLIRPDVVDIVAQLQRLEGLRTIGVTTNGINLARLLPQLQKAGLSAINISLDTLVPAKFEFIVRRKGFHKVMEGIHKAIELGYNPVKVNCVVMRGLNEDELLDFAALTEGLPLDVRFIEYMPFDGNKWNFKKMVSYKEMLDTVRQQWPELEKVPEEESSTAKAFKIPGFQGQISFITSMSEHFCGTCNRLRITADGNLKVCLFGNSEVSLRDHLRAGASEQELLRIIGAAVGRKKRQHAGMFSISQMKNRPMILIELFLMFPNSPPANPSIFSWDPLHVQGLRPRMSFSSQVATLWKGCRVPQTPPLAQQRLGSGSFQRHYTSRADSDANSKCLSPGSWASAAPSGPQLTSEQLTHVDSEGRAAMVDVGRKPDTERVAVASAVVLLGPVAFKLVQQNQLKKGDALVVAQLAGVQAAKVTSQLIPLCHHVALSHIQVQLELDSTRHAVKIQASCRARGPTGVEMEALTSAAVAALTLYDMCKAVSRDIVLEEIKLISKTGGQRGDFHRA
UniProt Q8N4V1: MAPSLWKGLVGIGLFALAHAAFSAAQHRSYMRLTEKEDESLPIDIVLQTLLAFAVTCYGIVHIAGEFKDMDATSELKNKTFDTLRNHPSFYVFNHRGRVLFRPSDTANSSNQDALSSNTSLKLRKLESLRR
UniProt Q99797: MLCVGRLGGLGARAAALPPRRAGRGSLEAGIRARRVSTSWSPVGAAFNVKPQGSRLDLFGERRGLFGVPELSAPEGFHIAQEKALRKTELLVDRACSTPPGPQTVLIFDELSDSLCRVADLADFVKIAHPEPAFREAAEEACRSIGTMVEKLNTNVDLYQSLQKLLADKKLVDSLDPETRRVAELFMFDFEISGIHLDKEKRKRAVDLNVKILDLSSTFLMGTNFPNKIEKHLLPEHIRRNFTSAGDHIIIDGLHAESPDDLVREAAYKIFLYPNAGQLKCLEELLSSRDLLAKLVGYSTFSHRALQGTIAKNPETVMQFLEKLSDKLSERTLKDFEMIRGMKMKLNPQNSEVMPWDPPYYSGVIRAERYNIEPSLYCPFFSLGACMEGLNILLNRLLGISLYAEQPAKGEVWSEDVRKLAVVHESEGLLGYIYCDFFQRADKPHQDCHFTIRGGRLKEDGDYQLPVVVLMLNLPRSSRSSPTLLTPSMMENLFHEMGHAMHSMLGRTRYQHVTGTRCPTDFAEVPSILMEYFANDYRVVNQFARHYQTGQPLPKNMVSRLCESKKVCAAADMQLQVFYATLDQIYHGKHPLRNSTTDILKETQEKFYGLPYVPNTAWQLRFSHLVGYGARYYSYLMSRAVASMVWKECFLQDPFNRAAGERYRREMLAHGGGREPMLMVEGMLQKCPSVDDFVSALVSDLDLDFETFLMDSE
UniProt Q9H8M7: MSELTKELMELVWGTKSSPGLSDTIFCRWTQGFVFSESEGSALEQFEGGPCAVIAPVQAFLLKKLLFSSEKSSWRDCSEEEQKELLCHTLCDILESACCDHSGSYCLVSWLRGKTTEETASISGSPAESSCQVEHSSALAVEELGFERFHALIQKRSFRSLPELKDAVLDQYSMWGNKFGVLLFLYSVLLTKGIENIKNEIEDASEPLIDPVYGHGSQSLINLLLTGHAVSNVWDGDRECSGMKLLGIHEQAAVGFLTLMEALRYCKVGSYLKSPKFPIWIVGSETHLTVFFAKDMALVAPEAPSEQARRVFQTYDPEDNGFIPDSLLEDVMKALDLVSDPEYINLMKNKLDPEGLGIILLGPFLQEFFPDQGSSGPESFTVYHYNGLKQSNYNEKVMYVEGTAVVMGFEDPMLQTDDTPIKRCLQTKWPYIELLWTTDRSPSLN
UniProt Q13015: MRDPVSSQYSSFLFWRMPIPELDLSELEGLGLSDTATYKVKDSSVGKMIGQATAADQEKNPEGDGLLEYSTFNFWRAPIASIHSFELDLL
UniProt Q7L1V2: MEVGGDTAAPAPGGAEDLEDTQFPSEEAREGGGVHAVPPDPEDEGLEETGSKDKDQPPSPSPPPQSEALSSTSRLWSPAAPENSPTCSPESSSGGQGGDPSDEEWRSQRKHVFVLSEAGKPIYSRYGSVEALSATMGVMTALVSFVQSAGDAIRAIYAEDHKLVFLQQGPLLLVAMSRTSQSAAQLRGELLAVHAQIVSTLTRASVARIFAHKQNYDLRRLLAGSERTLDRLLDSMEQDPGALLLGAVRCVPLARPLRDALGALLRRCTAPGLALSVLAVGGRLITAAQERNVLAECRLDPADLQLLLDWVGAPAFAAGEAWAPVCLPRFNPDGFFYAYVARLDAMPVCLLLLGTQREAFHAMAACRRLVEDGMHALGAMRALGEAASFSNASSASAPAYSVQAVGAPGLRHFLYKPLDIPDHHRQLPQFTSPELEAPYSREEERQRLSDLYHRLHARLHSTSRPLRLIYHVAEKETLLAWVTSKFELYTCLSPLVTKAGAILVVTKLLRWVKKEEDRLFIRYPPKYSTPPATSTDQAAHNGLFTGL
UniProt Q8IYU8: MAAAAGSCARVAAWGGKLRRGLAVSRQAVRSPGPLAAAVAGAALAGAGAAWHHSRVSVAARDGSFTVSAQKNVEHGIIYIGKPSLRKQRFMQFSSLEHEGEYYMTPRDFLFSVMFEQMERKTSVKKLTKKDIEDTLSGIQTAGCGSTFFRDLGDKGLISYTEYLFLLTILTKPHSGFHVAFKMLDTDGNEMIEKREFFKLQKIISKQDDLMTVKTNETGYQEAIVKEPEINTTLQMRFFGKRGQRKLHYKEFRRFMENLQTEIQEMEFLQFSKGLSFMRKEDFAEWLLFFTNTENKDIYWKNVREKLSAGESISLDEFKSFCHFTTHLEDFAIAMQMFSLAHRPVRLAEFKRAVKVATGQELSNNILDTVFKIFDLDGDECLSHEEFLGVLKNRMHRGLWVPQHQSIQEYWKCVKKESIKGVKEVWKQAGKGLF
UniProt Q9BRT3: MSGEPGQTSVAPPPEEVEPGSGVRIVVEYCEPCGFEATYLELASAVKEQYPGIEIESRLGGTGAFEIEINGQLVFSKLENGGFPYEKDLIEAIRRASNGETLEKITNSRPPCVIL
UniProt O00566: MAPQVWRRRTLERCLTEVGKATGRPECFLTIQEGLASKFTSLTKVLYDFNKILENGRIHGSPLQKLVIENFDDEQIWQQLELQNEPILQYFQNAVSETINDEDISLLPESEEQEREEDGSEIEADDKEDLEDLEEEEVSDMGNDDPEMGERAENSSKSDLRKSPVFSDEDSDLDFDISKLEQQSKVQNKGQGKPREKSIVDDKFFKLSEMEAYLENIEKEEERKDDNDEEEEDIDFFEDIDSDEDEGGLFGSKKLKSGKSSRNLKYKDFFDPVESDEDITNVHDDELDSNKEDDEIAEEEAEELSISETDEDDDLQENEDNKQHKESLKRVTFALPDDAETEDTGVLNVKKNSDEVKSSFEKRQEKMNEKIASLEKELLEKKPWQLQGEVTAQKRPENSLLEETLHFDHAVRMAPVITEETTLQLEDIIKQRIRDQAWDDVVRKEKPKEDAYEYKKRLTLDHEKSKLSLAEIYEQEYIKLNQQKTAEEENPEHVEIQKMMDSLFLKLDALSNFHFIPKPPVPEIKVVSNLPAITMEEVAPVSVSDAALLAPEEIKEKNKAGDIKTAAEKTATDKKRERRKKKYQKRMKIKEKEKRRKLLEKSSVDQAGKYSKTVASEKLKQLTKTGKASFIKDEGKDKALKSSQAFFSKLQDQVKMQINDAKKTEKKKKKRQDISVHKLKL
UniProt Q9NQG6: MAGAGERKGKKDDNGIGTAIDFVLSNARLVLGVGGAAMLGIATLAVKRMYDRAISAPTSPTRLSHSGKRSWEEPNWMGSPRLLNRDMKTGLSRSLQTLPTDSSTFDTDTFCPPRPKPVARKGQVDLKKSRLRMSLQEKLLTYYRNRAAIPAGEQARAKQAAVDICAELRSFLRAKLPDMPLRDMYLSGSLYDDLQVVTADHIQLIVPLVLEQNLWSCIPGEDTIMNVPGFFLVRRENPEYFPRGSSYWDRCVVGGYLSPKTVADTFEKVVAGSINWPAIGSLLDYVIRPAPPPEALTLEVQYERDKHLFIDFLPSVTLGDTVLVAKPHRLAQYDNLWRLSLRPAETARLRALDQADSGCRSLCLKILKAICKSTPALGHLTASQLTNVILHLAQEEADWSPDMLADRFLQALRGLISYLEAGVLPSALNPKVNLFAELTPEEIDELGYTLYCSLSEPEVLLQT
UniProt Q9HCE1: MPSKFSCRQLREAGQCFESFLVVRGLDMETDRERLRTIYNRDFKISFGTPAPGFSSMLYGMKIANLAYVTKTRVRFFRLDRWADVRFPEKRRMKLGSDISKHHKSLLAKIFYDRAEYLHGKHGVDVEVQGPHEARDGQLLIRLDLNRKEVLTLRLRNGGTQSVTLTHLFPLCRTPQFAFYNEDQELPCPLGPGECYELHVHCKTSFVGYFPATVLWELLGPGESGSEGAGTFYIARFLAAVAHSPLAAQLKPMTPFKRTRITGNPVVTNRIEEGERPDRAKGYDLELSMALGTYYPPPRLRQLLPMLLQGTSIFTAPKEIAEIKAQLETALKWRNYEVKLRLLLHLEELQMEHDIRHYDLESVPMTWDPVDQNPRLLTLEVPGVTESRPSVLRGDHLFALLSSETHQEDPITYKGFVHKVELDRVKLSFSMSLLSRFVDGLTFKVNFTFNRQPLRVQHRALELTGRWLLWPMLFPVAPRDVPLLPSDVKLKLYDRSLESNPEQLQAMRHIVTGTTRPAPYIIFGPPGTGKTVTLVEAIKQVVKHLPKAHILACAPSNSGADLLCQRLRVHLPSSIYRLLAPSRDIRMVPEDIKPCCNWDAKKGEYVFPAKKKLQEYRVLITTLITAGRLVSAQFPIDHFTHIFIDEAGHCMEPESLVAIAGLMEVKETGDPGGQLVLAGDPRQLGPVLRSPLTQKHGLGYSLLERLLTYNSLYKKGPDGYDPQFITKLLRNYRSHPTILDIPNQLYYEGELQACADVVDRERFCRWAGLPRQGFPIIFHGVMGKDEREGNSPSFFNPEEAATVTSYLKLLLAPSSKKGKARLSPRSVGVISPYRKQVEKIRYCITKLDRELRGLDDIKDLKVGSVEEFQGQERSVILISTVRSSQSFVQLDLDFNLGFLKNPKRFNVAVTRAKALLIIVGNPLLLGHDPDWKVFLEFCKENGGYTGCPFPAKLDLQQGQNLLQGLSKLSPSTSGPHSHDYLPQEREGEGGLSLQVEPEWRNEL
UniProt Q9BPX6: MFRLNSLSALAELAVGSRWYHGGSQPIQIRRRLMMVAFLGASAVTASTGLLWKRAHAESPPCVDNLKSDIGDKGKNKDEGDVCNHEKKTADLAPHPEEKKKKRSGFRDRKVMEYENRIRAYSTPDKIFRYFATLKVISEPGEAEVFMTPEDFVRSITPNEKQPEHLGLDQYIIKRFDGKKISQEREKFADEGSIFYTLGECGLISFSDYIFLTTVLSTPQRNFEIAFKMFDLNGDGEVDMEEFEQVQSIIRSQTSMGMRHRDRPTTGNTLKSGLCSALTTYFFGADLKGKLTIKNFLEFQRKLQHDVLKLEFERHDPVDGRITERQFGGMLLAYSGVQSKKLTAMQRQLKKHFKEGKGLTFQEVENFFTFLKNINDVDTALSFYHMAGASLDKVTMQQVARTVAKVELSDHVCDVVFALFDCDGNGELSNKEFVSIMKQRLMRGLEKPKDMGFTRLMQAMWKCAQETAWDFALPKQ

Columns and labels:
Assay in all cases: log2 fold change, soluble protein after heating vs DMSO (PISA); higher = thermal stabilisation; K562 cells, 10 uM, 30 min; active = over 0.2 and 3.5 SD of the protein, either way, in both replicates (recomputed)
[1] = compound: CC[C@@H]1C(=O)N(C)c2cnc(Nc3ccc(C(=O)NC4CCN(C)CC4)cc3OC)nc2N1C1CCCC1
Method in brief: (§1)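 Aliquots of K562 cells (2×10^6 cells/mL) treated with 10 μM compound for 30 min were heated for 3 min over 48°C-58°C. After pooling and extraction in PBS with 0.5% NP-40 at 4°C, soluble protein from a 21,000xg, 90 min spin was quantified by TMTpro 16plex LC-MS/MS with channel sums equalised. Thermal stability is expressed against control samples, from duplicates, as a log2 fold change.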

volasertib = compound: CC[C@@H]1C(=O)N(C)c2cnc(Nc3ccc(C(=O)N[C@H]4CC[C@H](N5CCN(CC6CC6)CC5)CC4)cc3OC)nc2N1C(C)C [volasertib]
Method in brief: as §1

[2] = compound: CC[C@H](C)N1C=C(C2=C(C=C(C=C21)C3=CN=C(C=C3)N4CCNCC4)C(=O)NCC5=C(C=C(NC5=O)C)C)C
Method in brief: as §1

epoxomicin = compound: CC[C@H](C)[C@@H](C(=O)N[C@@H]([C@@H](C)O)C(=O)N[C@@H](CC(C)C)C(=O)[C@]1(CO1)C)NC(=O)[C@H]([C@@H](C)CC)N(C)C(=O)C [epoxomicin]
Method in brief: as §1

[3] = compound: CCn1c(C(=O)N(C2CC2)C2CC2)cc2c3c(ncn3C)c(Nc3cc(C)n(C)n3)nc21
Method in brief: as §1

[4] = compound: CCn1cc(-c2ccnc3[nH]c(-c4cccc(CN(C)C)c4)cc23)c(-c2ccc(NC(=O)N(C)C)cc2)n1
Method in brief: as §1

[5] = compound: CN(C)CC(=O)Nc1ccc2[nH]c(=O)c3ccccc3c2c1
Method in brief: as §1

rosiglitazone = compound: CN(CCOC1=CC=C(C=C1)C[C@H]2C(=O)NC(=O)S2)C3=CC=CC=N3 (racemic) [rosiglitazone]
Method in brief: as §1

[6] = compound: CN1C2=C(C3=C1C(=O)N(N=C3)CC4=CC(=CC=C4)N)SC(=C2)S(=O)C
Method in brief: as §1

[7] = compound: CN1CCC(CNc2ccc3ncc(-c4cccc(OC(F)(F)F)c4)n3n2)CC1
Method in brief: as §1

| Target | log2 fold change [1] | log2 fold change (volasertib) | log2 fold change [2] | log2 fold change (epoxomicin) | log2 fold change [3] | log2 fold change [4] | log2 fold change [5] | log2 fold change (rosiglitazone) | log2 fold change [6] | log2 fold change [7] |
| --- | --- | --- | --- | --- | --- | --- | --- | --- | --- | --- |
| MICB, A0A140T979 | inactive: -0.033 | inactive: -0.044 | inactive: 0.042 | inactive: -0.008 | inactive: -0.022 | inactive: -0.011 | inactive: 0.056 | inactive: 0.042 | inactive: -0.087 | inactive: -0.027 |
| MIOS (UniProt Q9NXC5) | inactive: 0.02 | inactive: 0.047 | inactive: -0.012 | inactive: -0.013 | inactive: -0.037 | inactive: 0.066 | inactive: -0.041 | inactive: -0.023 | inactive: 0.035 | inactive: 0.096 |
| MRGBP (UniProt Q9NV56) | inactive: -0.014 | inactive: -0.101 | inactive: 0.121 | inactive: 0.048 | inactive: 0.026 | inactive: 0.054 | inactive: -0.046 | inactive: 0.009 | inactive: -0.03 | inactive: 0.209 |
| MOSPD2 (UniProt Q8NHP6) | inactive: 0.204 | inactive: 0.003 | inactive: -0.053 | inactive: -0.032 | inactive: 0.003 | inactive: -0.058 | inactive: -0.054 | inactive: 0.027 | inactive: 0.009 | inactive: 0 |
| MOCS1 isoform 8 (UniProt Q9NZB8) | inactive: 0.056 | inactive: 0.038 | inactive: 0.051 | inactive: -0.053 | inactive: 0.018 | inactive: 0.11 | inactive: 0.092 | inactive: -0.079 | inactive: 0.094 | inactive: 0.114 |
| MRPL18 (UniProt Q9H0U6) | inactive: 0.03 | inactive: 0.046 | inactive: 0.081 | inactive: 0.025 | inactive: 0 | inactive: 0 | inactive: 0.063 | inactive: -0.061 | inactive: 0.065 | inactive: 0.147 |
| MMGT1 isoform 2 (UniProt Q8N4V1) | inactive: 0.052 | inactive: -0.057 | inactive: 0.016 | inactive: 0.016 | inactive: -0.004 | inactive: 0.045 | inactive: -0.044 | inactive: -0.01 | inactive: -0.055 | inactive: -0.037 |
| MIPEP (UniProt Q99797) | inactive: -0.085 | inactive: -0.073 | inactive: 0.011 | inactive: 0.054 | inactive: -0.036 | inactive: -0.055 | inactive: -0.002 | inactive: 0.028 | inactive: -0.063 | inactive: -0.145 |
| MINDY3 (UniProt Q9H8M7) | inactive: 0.052 | inactive: -0.061 | inactive: 0.077 | inactive: -0.01 | inactive: -0.008 | inactive: -0.017 | inactive: -0.018 | inactive: 0.042 | inactive: -0.063 | inactive: 0.018 |
| MRPL16 (UniProt Q9NX20) | inactive: 0.081 | inactive: 0.241 | inactive: 0.068 | inactive: -0.042 | inactive: -0.066 | inactive: 0 | inactive: 0.019 | inactive: 0.034 | inactive: 0.198 | inactive: 0.177 |
| MLLT11 (UniProt Q13015) | inactive: 0.119 | inactive: -0.17 | inactive: 0.068 | inactive: 0.538 | inactive: 0.013 | inactive: -0.02 | inactive: 0.567 | inactive: 0.143 | inactive: 0.055 | inactive: -0.104 |
| MRPL32 (UniProt Q9BYC8) | inactive: 0.035 | inactive: 0.189 | inactive: -0.052 | inactive: -0.092 | inactive: 0.109 | inactive: 0.067 | inactive: -0.105 | inactive: -0.07 | inactive: 0.109 | inactive: 0.105 |
| MRPL3 (UniProt P09001) | inactive: 0.116 | inactive: 0.161 | inactive: 0.093 | inactive: -0.034 | inactive: -0.029 | inactive: -0.054 | inactive: -0.007 | inactive: -0.037 | inactive: 0.092 | inactive: 0.149 |
| MRPL15 (UniProt Q9P015) | inactive: 0.134 | inactive: 0.165 | inactive: 0.073 | inactive: -0.029 | inactive: -0.015 | inactive: -0.04 | inactive: -0.006 | inactive: -0.004 | inactive: 0.05 | inactive: 0.059 |
| MORF4L1 isoform 2 (UniProt Q9UBU8) | inactive: 0.021 | inactive: -0.162 | inactive: -0.016 | inactive: 0.193 | inactive: 0.003 | inactive: 0.006 | inactive: -0.053 | inactive: 0.013 | inactive: 0.026 | inactive: -0.048 |
| MRPL2 (UniProt Q5T653) | inactive: 0.02 | inactive: 0.138 | inactive: 0.019 | inactive: 0.087 | inactive: -0.115 | inactive: -0.034 | inactive: -0.063 | inactive: -0.031 | inactive: 0.059 | inactive: 0.079 |
| MRPL4 (UniProt Q9BYD3) | inactive: 0.057 | inactive: 0.164 | inactive: -0.03 | inactive: -0.005 | inactive: -0.076 | inactive: 0.023 | inactive: -0.035 | inactive: -0.059 | inactive: 0.171 | inactive: 0.08 |
| MRPL44 (UniProt Q9H9J2) | inactive: 0.085 | inactive: 0.221 | inactive: 0.087 | inactive: -0.046 | inactive: -0.068 | inactive: 0.007 | inactive: -0.033 | inactive: -0.044 | inactive: 0.059 | inactive: 0.068 |
| MON1B (UniProt Q7L1V2) | inactive: -0.002 | inactive: -0.183 | inactive: -0.021 | inactive: -0.028 | – | inactive: 0.013 | inactive: -0.024 | – | inactive: -0.011 | active: -0.377 |
| MICU2 (UniProt Q8IYU8) | inactive: -0.135 | inactive: -0.118 | inactive: 0 | inactive: 0.067 | – | inactive: -0.046 | inactive: 0.007 | – | inactive: 0.097 | active: -0.309 |
| MICALL1 (UniProt Q8N3F8) | inactive: 0.107 | inactive: -0.004 | inactive: -0.025 | inactive: -0.198 | inactive: 0.034 | inactive: 0.06 | inactive: -0.079 | – | inactive: -0.039 | inactive: -0.011 |
| MIEN1 (UniProt Q9BRT3) | inactive: 0.055 | inactive: -0.047 | inactive: -0.02 | inactive: 0.008 | – | inactive: 0.029 | inactive: 0.181 | – | inactive: 0.008 | active: 0.284 |
| MRPL42 (UniProt Q9Y6G3) | inactive: 0.181 | inactive: 0.267 | inactive: -0.026 | inactive: -0.013 | – | inactive: -0.034 | inactive: -0.068 | inactive: -0.137 | inactive: 0.077 | inactive: 0.246 |
| MPHOSPH10 (UniProt O00566) | inactive: 0.099 | inactive: -0.155 | inactive: 0.084 | inactive: -0.26 | – | inactive: 0.182 | inactive: -0.012 | – | inactive: 0.314 | inactive: 0.133 |
| MIEF1 (UniProt Q9NQG6) | inactive: -0.053 | inactive: -0.098 | inactive: 0.031 | inactive: 0.073 | – | inactive: 0.019 | inactive: 0.054 | – | inactive: -0.018 | active: -0.546 |
| MOV10 (UniProt Q9HCE1) | inactive: 0.199 | inactive: 0.195 | inactive: -0.029 | inactive: -0.156 | – | inactive: 0.158 | inactive: -0.061 | – | inactive: 0.185 | inactive: 0.331 |
| MICU1 isoform 3 (UniProt Q9BPX6) | inactive: -0.113 | inactive: -0.281 | inactive: 0.031 | inactive: 0.026 | – | inactive: 0.008 | inactive: 0.006 | – | inactive: 0.077 | active: -0.369 |

Looked up one by one from the entries so far (2):

| Target | log2 fold change [1] | log2 fold change (volasertib) | log2 fold change [2] | log2 fold change (epoxomicin) | log2 fold change [3] | log2 fold change [4] | log2 fold change [5] | log2 fold change (rosiglitazone) | log2 fold change [6] | log2 fold change [7] |
| --- | --- | --- | --- | --- | --- | --- | --- | --- | --- | --- |
| MRPL2 (UniProt Q5T653) | inactive: 0.02 | inactive: 0.138 | inactive: 0.019 | inactive: 0.087 | inactive: -0.115 | inactive: -0.034 | inactive: -0.063 | inactive: -0.031 | inactive: 0.059 | inactive: 0.079 |
| MRPL18 (UniProt Q9H0U6) | inactive: 0.03 | inactive: 0.046 | inactive: 0.081 | inactive: 0.025 | inactive: 0 | inactive: 0 | inactive: 0.063 | inactive: -0.061 | inactive: 0.065 | inactive: 0.147 |
